Assays:
[1] = general procedure: Boc solid-phase peptide synthesis; benzhydrylamine resin; diisopropylcarbodiimide; conditions: whole synthesis, scale 0.5 mmole, one disulfide bridge, sequence written open
[2] = general procedure: Boc solid-phase peptide synthesis; benzhydrylamine-polystyrene resin; diisopropylcarbodiimide; conditions: whole synthesis, scale 0.5 mmole, one disulfide bridge, sequence written open

Row | Substance | isolated mass [1] [mg] | isolated mass [2] [mg]
1 | D-Phe-Cys-Tyr-D-Trp-CH2 -NH-Lys-Val-Cys-Thr-NH2 | 63.4 | –
2 | D-Phe-Cys-Tyr-D-Trp-Lys-CH2 NH- Val-Cys-Thr-NH2 | – | 78

Source: US5059653 (dated 1991)
